Test results from the supplement of paper PMC10849652.
The list shows a part of the results.

Amino acid sequences for entries named in this document (tags omitted). A change or cut given only in a name is not applied to a line headed by its entry.
UniProt Q15637: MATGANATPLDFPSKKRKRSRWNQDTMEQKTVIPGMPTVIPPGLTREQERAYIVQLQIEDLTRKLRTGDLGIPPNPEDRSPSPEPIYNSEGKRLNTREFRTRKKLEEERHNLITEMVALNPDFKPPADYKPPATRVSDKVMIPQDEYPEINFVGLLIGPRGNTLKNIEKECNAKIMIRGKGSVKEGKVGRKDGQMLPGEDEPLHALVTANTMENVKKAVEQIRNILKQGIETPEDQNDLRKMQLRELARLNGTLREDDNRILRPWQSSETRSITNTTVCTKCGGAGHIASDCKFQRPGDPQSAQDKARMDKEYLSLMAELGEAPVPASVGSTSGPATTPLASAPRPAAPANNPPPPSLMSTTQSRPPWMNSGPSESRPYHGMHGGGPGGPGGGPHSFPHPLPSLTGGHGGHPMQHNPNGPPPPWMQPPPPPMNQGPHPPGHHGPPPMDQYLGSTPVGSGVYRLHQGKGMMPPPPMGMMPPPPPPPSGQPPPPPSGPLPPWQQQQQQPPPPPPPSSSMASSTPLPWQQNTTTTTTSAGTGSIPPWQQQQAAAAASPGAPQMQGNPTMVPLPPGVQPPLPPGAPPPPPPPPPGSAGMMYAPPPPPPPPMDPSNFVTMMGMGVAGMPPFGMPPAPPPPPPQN
UniProt Q15427: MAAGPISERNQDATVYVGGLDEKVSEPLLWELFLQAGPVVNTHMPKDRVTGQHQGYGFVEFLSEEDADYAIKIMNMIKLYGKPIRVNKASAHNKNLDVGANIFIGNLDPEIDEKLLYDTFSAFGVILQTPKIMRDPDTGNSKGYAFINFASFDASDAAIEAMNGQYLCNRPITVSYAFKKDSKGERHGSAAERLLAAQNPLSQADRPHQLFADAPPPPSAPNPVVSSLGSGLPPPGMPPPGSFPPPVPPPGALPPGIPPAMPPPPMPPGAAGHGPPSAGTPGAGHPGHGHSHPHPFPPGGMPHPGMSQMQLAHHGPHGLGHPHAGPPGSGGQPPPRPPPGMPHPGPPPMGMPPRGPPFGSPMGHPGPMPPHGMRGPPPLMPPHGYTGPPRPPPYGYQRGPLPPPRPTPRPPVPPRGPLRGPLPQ
UniProt Q9UHW9: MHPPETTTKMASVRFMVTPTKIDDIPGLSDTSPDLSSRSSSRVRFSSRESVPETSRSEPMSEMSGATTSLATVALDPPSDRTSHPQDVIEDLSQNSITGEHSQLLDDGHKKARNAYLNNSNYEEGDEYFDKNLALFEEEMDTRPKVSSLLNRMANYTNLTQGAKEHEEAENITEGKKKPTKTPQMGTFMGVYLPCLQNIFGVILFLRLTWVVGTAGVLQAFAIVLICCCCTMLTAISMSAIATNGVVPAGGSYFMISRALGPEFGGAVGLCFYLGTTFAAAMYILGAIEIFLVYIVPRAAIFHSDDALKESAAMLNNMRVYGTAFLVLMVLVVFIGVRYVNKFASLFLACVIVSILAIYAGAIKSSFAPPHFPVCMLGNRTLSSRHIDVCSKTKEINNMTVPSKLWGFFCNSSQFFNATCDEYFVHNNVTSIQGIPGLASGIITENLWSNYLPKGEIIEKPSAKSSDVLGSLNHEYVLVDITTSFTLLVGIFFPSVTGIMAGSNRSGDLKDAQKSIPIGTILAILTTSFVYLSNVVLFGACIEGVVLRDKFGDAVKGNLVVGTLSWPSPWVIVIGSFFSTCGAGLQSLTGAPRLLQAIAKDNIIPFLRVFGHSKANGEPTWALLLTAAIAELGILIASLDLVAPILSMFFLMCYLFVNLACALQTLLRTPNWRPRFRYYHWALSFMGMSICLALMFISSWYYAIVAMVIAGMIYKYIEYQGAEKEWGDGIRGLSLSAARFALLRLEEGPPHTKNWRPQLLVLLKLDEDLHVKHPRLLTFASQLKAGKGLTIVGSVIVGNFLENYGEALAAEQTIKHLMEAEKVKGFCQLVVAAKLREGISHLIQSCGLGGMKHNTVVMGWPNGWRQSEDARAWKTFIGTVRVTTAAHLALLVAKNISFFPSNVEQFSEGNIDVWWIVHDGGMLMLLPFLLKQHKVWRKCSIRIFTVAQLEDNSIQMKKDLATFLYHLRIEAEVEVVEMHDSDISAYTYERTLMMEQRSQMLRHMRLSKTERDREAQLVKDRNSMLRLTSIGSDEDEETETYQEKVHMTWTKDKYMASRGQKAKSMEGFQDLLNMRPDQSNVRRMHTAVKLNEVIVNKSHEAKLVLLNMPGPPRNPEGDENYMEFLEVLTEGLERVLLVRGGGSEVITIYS
UniProt P34897: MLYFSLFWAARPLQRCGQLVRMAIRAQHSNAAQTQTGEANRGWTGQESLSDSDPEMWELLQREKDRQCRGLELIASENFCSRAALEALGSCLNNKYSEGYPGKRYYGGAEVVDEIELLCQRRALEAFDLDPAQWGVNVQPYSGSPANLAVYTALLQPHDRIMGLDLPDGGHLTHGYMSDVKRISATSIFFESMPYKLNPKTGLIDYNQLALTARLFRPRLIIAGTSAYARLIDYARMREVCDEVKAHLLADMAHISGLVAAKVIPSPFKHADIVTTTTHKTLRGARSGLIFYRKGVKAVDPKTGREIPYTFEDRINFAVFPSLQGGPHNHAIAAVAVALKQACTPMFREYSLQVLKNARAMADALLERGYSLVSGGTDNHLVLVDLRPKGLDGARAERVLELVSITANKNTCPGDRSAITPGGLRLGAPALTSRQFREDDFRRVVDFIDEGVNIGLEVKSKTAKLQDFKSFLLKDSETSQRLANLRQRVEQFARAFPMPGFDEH
UniProt Q8NC51: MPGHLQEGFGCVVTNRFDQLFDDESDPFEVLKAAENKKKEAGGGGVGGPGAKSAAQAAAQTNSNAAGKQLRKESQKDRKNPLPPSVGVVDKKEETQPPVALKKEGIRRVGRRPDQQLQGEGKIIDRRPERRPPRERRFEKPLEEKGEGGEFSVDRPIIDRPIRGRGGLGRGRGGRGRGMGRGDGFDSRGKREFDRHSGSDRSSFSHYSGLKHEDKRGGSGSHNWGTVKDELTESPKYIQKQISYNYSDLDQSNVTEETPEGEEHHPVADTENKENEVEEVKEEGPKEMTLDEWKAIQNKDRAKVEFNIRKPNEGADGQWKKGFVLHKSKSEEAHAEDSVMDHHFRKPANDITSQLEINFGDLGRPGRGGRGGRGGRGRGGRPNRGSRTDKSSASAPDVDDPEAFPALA
UniProt O95562: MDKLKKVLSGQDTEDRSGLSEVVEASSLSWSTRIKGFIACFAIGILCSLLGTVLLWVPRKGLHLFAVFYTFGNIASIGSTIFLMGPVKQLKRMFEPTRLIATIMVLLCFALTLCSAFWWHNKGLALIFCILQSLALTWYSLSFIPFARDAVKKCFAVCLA
UniProt Q9BRV8: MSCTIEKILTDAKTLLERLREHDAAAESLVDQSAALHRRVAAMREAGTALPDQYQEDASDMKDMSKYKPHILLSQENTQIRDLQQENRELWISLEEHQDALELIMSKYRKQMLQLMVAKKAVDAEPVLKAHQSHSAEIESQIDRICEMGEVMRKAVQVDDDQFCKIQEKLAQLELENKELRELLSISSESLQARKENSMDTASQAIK
UniProt Q6P4A7: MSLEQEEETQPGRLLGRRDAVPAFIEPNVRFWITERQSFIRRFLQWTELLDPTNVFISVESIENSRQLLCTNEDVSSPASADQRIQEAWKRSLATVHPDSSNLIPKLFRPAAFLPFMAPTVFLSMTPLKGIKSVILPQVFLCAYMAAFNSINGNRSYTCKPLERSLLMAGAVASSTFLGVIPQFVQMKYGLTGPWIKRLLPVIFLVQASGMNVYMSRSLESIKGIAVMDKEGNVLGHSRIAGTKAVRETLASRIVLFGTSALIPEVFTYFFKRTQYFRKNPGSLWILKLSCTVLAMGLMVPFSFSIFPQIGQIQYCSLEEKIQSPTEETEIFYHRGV
UniProt P84101: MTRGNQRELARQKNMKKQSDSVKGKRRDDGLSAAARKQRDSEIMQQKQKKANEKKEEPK
UniProt Q7Z333: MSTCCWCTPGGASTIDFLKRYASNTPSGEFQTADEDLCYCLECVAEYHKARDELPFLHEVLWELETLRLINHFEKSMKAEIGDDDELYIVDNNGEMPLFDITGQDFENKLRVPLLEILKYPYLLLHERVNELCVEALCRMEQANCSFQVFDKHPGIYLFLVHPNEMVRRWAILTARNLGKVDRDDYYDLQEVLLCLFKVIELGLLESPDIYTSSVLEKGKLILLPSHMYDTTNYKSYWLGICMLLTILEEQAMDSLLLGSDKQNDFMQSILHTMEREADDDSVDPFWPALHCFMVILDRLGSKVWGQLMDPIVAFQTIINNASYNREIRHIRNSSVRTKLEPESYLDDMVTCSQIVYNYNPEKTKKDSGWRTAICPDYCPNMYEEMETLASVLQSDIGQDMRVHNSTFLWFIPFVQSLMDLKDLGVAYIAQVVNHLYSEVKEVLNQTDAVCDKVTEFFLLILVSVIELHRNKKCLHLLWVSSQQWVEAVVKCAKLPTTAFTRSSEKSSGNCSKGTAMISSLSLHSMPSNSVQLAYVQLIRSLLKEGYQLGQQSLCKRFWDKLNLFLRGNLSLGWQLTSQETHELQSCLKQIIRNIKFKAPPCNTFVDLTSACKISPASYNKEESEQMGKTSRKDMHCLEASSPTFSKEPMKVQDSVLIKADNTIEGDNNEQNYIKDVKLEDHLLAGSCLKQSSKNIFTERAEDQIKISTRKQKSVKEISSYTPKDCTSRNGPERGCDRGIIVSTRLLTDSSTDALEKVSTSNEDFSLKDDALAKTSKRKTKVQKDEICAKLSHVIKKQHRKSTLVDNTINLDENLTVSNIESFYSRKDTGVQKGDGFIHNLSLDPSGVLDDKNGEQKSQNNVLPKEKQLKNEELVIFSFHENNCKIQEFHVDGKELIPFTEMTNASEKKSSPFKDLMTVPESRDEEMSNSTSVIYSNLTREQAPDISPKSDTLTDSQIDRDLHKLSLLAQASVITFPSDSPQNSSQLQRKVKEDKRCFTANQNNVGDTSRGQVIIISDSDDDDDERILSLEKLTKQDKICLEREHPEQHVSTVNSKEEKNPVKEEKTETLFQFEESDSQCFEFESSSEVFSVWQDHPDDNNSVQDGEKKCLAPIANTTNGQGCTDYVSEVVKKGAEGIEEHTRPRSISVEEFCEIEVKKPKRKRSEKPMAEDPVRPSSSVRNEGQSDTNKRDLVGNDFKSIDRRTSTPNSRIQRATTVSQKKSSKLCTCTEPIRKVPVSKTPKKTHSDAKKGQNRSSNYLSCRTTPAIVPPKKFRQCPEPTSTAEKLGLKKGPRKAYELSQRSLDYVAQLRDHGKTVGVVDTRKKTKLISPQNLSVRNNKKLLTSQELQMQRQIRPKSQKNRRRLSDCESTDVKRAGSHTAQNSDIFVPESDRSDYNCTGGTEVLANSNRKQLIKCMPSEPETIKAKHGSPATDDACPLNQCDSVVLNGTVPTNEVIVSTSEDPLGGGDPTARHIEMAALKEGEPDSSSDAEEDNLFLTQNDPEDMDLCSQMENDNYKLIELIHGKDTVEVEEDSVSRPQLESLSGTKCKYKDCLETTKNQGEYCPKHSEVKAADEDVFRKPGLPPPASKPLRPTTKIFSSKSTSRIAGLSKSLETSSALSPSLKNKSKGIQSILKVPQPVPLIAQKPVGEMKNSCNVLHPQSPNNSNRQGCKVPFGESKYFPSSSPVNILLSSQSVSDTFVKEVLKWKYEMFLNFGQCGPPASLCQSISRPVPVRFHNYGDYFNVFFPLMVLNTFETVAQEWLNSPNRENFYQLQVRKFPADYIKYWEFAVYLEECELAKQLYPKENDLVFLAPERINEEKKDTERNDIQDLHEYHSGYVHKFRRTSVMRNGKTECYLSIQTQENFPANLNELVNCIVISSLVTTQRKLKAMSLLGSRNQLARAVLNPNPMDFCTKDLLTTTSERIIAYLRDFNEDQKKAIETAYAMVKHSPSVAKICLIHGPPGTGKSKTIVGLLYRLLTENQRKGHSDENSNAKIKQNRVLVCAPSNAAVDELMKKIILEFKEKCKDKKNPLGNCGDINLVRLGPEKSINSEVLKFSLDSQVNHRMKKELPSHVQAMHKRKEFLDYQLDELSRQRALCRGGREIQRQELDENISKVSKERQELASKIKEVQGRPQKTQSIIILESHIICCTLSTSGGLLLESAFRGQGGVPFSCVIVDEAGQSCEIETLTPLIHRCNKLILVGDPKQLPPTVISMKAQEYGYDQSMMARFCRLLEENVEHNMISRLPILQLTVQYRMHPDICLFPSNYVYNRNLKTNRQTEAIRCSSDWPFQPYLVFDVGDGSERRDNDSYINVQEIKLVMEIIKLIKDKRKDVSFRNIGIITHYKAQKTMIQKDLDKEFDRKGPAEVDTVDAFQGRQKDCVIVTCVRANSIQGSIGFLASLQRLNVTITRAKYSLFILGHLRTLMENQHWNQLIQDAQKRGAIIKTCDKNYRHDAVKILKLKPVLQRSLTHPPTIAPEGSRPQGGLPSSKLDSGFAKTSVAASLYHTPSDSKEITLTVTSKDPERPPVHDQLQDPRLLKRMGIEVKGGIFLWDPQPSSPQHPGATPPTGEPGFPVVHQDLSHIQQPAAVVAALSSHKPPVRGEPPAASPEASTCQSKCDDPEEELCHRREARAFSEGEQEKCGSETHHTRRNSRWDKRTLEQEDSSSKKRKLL

Experiments:
Test in all cases: log2 fold change, soluble protein after heating vs DMSO (PISA); higher = thermal stabilisation; K562 lysate, 10 uM; active = over 0.2 and 3.5 SD of the protein, either way, in both replicates (recomputed)
[1] = compound: CN1CC[C@H](c2c(O)cc(O)c3c(=O)cc(-c4ccccc4Cl)oc23)[C@H](O)C1 [alvocidib]
In short: (§1)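 Pellets of K562 cells were dounce-homogenised in PBS pH 7.4 with 1 mM MgCl2, and the crude extract was held at 1 mg/mL protein for a 30 min treatment with 10 μM compound. Aliquots were heated for 3 min over 48°C-58°C and pooled before NP-40 was added to 0.5% at 4°C. The supernatant from 21,000xg for 90 min was quantified by TMTpro 16plex LC-MS/MS with channel sums equalised. Values are reported from duplicates as log-two fold change in thermal stability relative to solvent controls.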

[2] = compound: CN1CCc2c(c3ccccc3n2Cc2ccc(C(=O)NO)cc2)C1 [Tubastatin A]
In short: as §1

[3] = compound: CNC(=O)C1=CC=CC=C1NC2=NC(=NC=C2Cl)NC3=C(C=C(C=C3)N4CCOCC4)OC
In short: as §1

[4] = compound: CNC(=O)c1ccc(Nc2ncc(C(F)(F)F)c(NCc3nccnc3N(C)S(C)(=O)=O)n2)cc1 [defactinib]
In short: as §1

[5] = compound: CNc1nc(-c2ccc3c(N)n[nH]c3c2)cc(N2C[C@@H](C(=O)NC3CCCCC3)CC[C@H]2C)n1
In short: as §1

[6] = compound: COC(=O)N[C@@H](C)CNc1nccc(-c2cn(C(C)C)nc2-c2cc(Cl)cc(NS(C)(=O)=O)c2F)n1 [encorafenib]
In short: as §1

[7] = compound: COC(=O)[C@H](CCSC)NC(=O)C1=C(C=C(C=C1)NC[C@H](CS)N)C2=CC=CC=C2
In short: as §1

[8] = compound: COc1cc(Nc2ncc3c(n2)-c2ccc(Cl)cc2C(c2c(F)cccc2OC)=NC3)ccc1C(=O)O [alisertib]
In short: as §1

[9] = compound: COc1cc2nc(-c3cc(F)ccc3O)nc(N[C@@H]3CNC[C@H]3C(C)(C)O)c2cc1OC
In short: as §1

[10] = compound: COc1cc2ncnc(Nc3ccc(F)c(Cl)c3)c2cc1OCCCN1CCOCC1 [gefitinib]
In short: as §1

Row | Target | log2 fold change [1] | log2 fold change [2] | log2 fold change [3] | log2 fold change [4] | log2 fold change [5] | log2 fold change [6] | log2 fold change [7] | log2 fold change [8] | log2 fold change [9] | log2 fold change [10]
1 | SF1 isoform 5 (UniProt Q15637) | inactive: -0.006 | inactive: 0.033 | inactive: 0.012 | inactive: -0.023 | inactive: 0.036 | inactive: 0.024 | inactive: -0.042 | inactive: 0.019 | inactive: -0.002 | inactive: -0.017
2 | SF3B4 (UniProt Q15427) | inactive: -0.04 | inactive: 0.07 | inactive: 0.028 | inactive: 0.014 | inactive: 0.016 | inactive: -0.03 | inactive: 0.008 | inactive: 0.007 | inactive: -0.018 | inactive: -0.079
3 | SLC12A6 (UniProt Q9UHW9) | inactive: -0.03 | inactive: 0.03 | inactive: 0.065 | inactive: 0.006 | inactive: -0.038 | inactive: 0.034 | inactive: -0.021 | inactive: -0.006 | inactive: 0.004 | inactive: 0.093
4 | SIPA1 (UniProt Q96FS4) | inactive: -0.039 | inactive: 0.011 | inactive: 0.022 | inactive: 0.008 | inactive: 0.117 | inactive: 0.041 | inactive: 0.105 | inactive: -0.029 | inactive: -0.058 | inactive: 0.016
5 | SF1 isoform 6 (UniProt Q15637) | inactive: 0.009 | inactive: 0.09 | inactive: 0.053 | inactive: 0.033 | inactive: 0.367 | inactive: 0.082 | inactive: 0.066 | inactive: -0.01 | inactive: -0.046 | inactive: 0.045
6 | SIRT1 (UniProt Q96EB6) | inactive: 0.02 | inactive: 0.004 | inactive: 0.013 | inactive: 0.02 | inactive: 0.035 | inactive: -0.006 | inactive: 0.043 | inactive: 0.011 | inactive: 0.009 | inactive: 0.001
7 | SHMT2 (UniProt P34897) | inactive: 0.024 | inactive: 0.026 | inactive: 0.002 | inactive: -0.008 | inactive: 0.021 | inactive: -0.025 | inactive: -0.02 | inactive: -0.002 | inactive: 0.002 | inactive: -0.011
8 | SLC11A2 isoform 3 (UniProt P49281) | inactive: -0.032 | inactive: -0.047 | inactive: 0.031 | inactive: -0.001 | inactive: -0.008 | inactive: 0.063 | inactive: -0.027 | inactive: 0.128 | inactive: 0.021 | active: 0.295
9 | SHROOM1 (UniProt Q2M3G4) | inactive: 0.014 | inactive: -0.096 | inactive: 0.068 | inactive: 0.033 | inactive: -0.032 | inactive: 0.162 | inactive: -0.03 | inactive: 0.003 | inactive: 0.038 | inactive: 0.001
10 | SERBP1 (UniProt Q8NC51) | inactive: 0.027 | inactive: 0.057 | inactive: 0.018 | inactive: -0.041 | inactive: 0.029 | inactive: -0.035 | inactive: -0.02 | inactive: 0.007 | inactive: -0.014 | inactive: 0.017
11 | SHMT1 (UniProt P34896) | inactive: -0.011 | inactive: 0.017 | inactive: 0.013 | inactive: 0.006 | inactive: 0.072 | inactive: -0.016 | inactive: -0.036 | inactive: -0.018 | inactive: -0.001 | inactive: -0.044
12 | SFT2D2 (UniProt O95562) | inactive: -0.03 | inactive: 0 | inactive: 0.039 | inactive: -0.025 | inactive: 0.045 | inactive: 0.018 | inactive: -0.15 | inactive: -0.003 | inactive: -0.021 | inactive: -0.017
13 | SH3BGR (UniProt P55822) | inactive: -0.01 | inactive: -0.006 | inactive: -0.03 | inactive: 0.037 | inactive: 0.043 | inactive: -0.036 | inactive: -0.068 | inactive: -0.04 | inactive: 0.003 | inactive: -0.011
14 | SIKE1 (UniProt Q9BRV8) | inactive: -0.006 | inactive: 0.011 | inactive: 0.062 | inactive: 0.017 | inactive: -0.018 | inactive: 0.005 | inactive: -0.126 | inactive: -0.044 | inactive: -0.037 | inactive: 0.012
15 | SFXN4 (UniProt Q6P4A7) | inactive: -0.033 | inactive: 0.014 | inactive: 0.009 | inactive: -0.105 | inactive: 0.029 | inactive: 0.014 | inactive: 0.064 | inactive: -0.007 | inactive: -0.031 | inactive: -0.004
16 | SLC17A5 (UniProt Q9NRA2) | inactive: -0.1 | inactive: 0.054 | inactive: -0.016 | inactive: -0.14 | inactive: 0.208 | inactive: 0.031 | inactive: -0.115 | inactive: -0.019 | inactive: -0.042 | inactive: 0.037
17 | SHPRH (UniProt Q149N8) | inactive: -0.003 | inactive: -0.091 | inactive: 0.059 | inactive: 0.031 | inactive: -0.131 | inactive: 0.085 | inactive: 0.065 | inactive: -0.062 | inactive: -0.027 | inactive: 0.011
18 | SERF2 (UniProt P84101) | inactive: -0.017 | inactive: 0.043 | inactive: -0.034 | inactive: 0.002 | inactive: 0.068 | inactive: 0.042 | inactive: -0.124 | inactive: -0.086 | inactive: 0.128 | inactive: 0.038
19 | SLBP (UniProt Q14493) | inactive: 0.055 | inactive: -0.095 | inactive: 0.033 | inactive: -0.003 | inactive: -0.191 | inactive: 0.019 | inactive: 0 | inactive: 0.028 | inactive: -0.055 | inactive: -0.019
20 | SETD3 (UniProt Q86TU7) | inactive: -0.018 | inactive: -0.011 | inactive: -0.023 | inactive: -0.021 | inactive: -0.047 | inactive: 0.025 | inactive: 0.003 | inactive: 0 | inactive: 0.001 | inactive: 0.027
21 | SGF29 (UniProt Q96ES7) | inactive: -0.04 | inactive: -0.034 | inactive: 0.061 | inactive: 0.074 | inactive: 0.039 | inactive: 0.117 | inactive: 0.037 | inactive: 0.006 | inactive: -0.039 | inactive: 0.015
22 | SERINC1 (UniProt Q9NRX5) | inactive: -0.144 | inactive: -0.032 | inactive: 0.009 | inactive: 0.168 | inactive: -0.015 | inactive: 0.064 | inactive: -0.023 | inactive: 0.086 | inactive: 0.021 | inactive: 0.047
23 | SETX isoform 4 (UniProt Q7Z333) | inactive: 0.108 | inactive: -0.173 | inactive: 0.058 | inactive: 0.218 | inactive: 0.022 | inactive: -0.219 | inactive: 0.17 | inactive: 0.003 | inactive: 0.11 | inactive: 0.025
24 | SH3BGRL3 (UniProt Q9H299) | inactive: 0.007 | inactive: 0.022 | inactive: 0.003 | inactive: 0.04 | inactive: 0.036 | inactive: -0.048 | inactive: 0.004 | inactive: 0 | inactive: -0.021 | inactive: -0.061
25 | SFPQ (UniProt P23246) | inactive: 0.013 | inactive: 0.01 | inactive: -0.017 | inactive: -0.011 | inactive: 0.01 | inactive: -0.012 | inactive: 0.018 | inactive: 0.013 | inactive: -0.003 | inactive: 0.012
